According to EP4670742A1, “ANTI-CD79B ANTIBODY DRUG CONJUGATES” (priority 2024, dated 2025):
No constants are given. Whether binding was seen depends on the method and setting. Some results given as binding are weak or reduced against the parent protein; the word gives no strength.

Chains of the proteins cited; added tags and fusions are not shown. Residues count along the entry.
UniProt P40259, residues 29-159: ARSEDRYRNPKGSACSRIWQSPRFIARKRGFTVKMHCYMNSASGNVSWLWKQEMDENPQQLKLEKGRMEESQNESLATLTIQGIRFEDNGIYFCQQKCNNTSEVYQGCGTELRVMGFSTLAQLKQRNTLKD

Biological target: human CD79b (human) (UniProt P40259)
Test: screening of antibody candidates; assay not named

binding: binds
B1: Ab1 (antibody, human IgG1, kappa, V domains shown)
VH: EVQLVESGGGLVQPGGSLRLPCAASGFTFYNYWITWIRQAPGKGLEWVANINQAGSEKSYLDAVKGRFTISRDNAKNSVYLQMNSLRVEDTAVYYCAGGFRAFDIWGQGTMVTVSS
VL: DFVLTQSPLSLSVTPGEPASISCRSSQSLLHSSGESYLDWFLQRPGQSPQVLIYLGSHRASGAPDRFSGSGSGTDFTLKISRVEAEDVGVYYCMQALQTPLTFGGGTRVEIKR
notes: Unconjugated IgG1 kappa antibody expressed in CHO cells; also called anti-CD79b antibody Ab1; CD79b monoclonal antibody candidate
